Experimental data as given in the supplement of paper PMC8728848.
This is one part of the list.

Columns and labels:
Assay in all cases: glycan array binding signal (z-score within array); higher = stronger binding
Details in all cases: glycan notation: IUPAC condensed, linker removed
Neu5Ac(a2-8)Neu5Ac = target: Neu5Ac(a2-8)Neu5Ac
Procedure, shortened: (§1)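 Glycan array data were curated from 3228 arrays in the Consortium for Functional Glycomics database and kept only where the protein sequence was available. Glycan names were converted to IUPAC-condensed notation, and columns mapping to the same glycan were averaged. The binding signal is a within-array Z-score, averaged across arrays of the same protein sequence at different concentrations or buffers and across linkers. Negative Z-scores can be read as non-binding.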

[1] = target: Neu5Ac(a2-8)Neu5Ac(a2-3)Gal(b1-3)GalNAc(b1-4)[Neu5Ac(a2-3)]Gal(b1-4)Glc
Procedure, shortened: as §1

[2] = target: Neu5Ac(a2-8)Neu5Ac(a2-3)Gal(b1-3)GalNAc(b1-4)[Neu5Ac(a2-8)Neu5Ac(a2-3)]Gal(b1-4)Glc
Procedure, shortened: as §1

[3] = target: Neu5Ac(a2-8)Neu5Ac(a2-3)Gal(b1-4)Glc
Procedure, shortened: as §1

[4] = target: Neu5Ac(a2-8)Neu5Ac(a2-3)Gal(b1-4)GlcNAc
Procedure, shortened: as §1

[5] = target: Neu5Ac(a2-8)Neu5Ac(a2-3)[Gal(b1-3)GalNAc(b1-4)]Gal(b1-4)Glc
Procedure, shortened: as §1

[6] = target: Neu5Ac(a2-8)Neu5Ac(a2-3)[GalNAc(b1-4)]Gal(b1-4)Glc
Procedure, shortened: as §1

[7] = target: Neu5Ac(a2-8)Neu5Ac(a2-8)Neu5Ac
Procedure, shortened: as §1

[8] = target: Neu5Ac(a2-8)Neu5Ac(a2-8)Neu5Ac(a2-3)Gal(b1-4)Glc
Procedure, shortened: as §1

[9] = target: Neu5Ac(a2-8)Neu5Ac(a2-8)Neu5Ac(a2-3)[Gal(b1-3)GalNAc(b1-4)]Gal(b1-4)Glc
Procedure, shortened: as §1

[10] = target: Neu5Ac(a2-8)Neu5Ac(a2-8)Neu5Ac(a2-3)[GalNAc(b1-4)]Gal(b1-4)Glc
Procedure, shortened: as §1

[11] = target: Neu5Ac(a2-8)Neu5Ac(a2-8)Neu5Ac(a2-8)Neu5Ac(a2-3)[GalNAc(b1-4)]Gal(b1-4)Glc
Procedure, shortened: as §1

[12] = target: Neu5Ac(a2-8)Neu5Gc(a2-3)Gal(b1-4)GlcNAc
Procedure, shortened: as §1

[13] = target: Neu5Ac(b2-6)Gal(b1-4)GlcNAc
Procedure, shortened: as §1

Neu5Ac(b2-6)GalNAc = target: Neu5Ac(b2-6)GalNAc
Procedure, shortened: as §1

[14] = target: Neu5Ac9Ac(a2-3)Gal(b1-3)GlcNAc
Procedure, shortened: as §1

[15] = target: Neu5Ac9Ac(a2-3)Gal(b1-4)GlcNAc
Procedure, shortened: as §1

[16] = target: Neu5Ac9Ac(a2-6)Gal(b1-4)GlcNAc
Procedure, shortened: as §1

[17] = target: Neu5Gc(a2-3)Gal(b1-3)GlcNAc
Procedure, shortened: as §1

[18] = target: Neu5Gc(a2-3)Gal(b1-3)[Fuc(a1-4)]GlcNAc
Procedure, shortened: as §1

Neu5Gc(a2-3)Gal(b1-4)Glc = target: Neu5Gc(a2-3)Gal(b1-4)Glc
Procedure, shortened: as §1

[19] = target: Neu5Gc(a2-3)Gal(b1-4)GlcNAc
Procedure, shortened: as §1

[20] = target: Neu5Gc(a2-3)Gal(b1-4)GlcNAc(b1-3)Gal(b1-4)GlcNAc(b1-2)Man(a1-3)[Neu5Gc(a2-3)Gal(b1-4)GlcNAc(b1-3)Gal(b1-4)GlcNAc(b1-2)Man(a1-6)]Man(b1-4)GlcNAc(b1-4)GlcNAc
Procedure, shortened: as §1

[21] = target: Neu5Gc(a2-3)Gal(b1-4)[Fuc(a1-3)]GlcNAc
Procedure, shortened: as §1

[22] = target: Neu5Gc(a2-6)Gal(b1-4)GlcNAc
Procedure, shortened: as §1

Neu5Gc(a2-6)GalNAc = target: Neu5Gc(a2-6)GalNAc
Procedure, shortened: as §1

[23] = target: Neu5Gc(a2-8)Neu5Ac(a2-3)Gal(b1-4)GlcNAc
Procedure, shortened: as §1

[24] = target: Neu5Gc(a2-8)Neu5Gc(a2-3)Gal(b1-4)GlcNAc
Procedure, shortened: as §1

[25] = target: Neu5Gc(a2-8)Neu5Gc(a2-3)Gal(b1-4)GlcNAc(b1-3)Gal(b1-4)GlcNAc
Procedure, shortened: as §1

[26] = target: Neu5Gc(a2-8)Neu5Gc(a2-6)Gal(b1-4)GlcNAc
Procedure, shortened: as §1

[27] = target: Neu5Gc(b2-6)Gal(b1-4)GlcNAc
Procedure, shortened: as §1

B1: pTFF2 (Sus scrofa), P01359 (protein)
chain: KPAACRCSRQDPKNRVNCGFPGITSDQCFTSGCCFDSQVPGVPWCFKPLPAQESEECVMEVSARKNCGYPGISPEDCAARNCCFSDTIPEVPWCFFPMSVEACHY
Neu5Ac(a2-8)Neu5Ac
  glycan array binding signal (z-score): -0.697
[1]
  glycan array binding signal (z-score): 0.514
[2]
  glycan array binding signal (z-score): 0.439
[3]
  glycan array binding signal (z-score): 0.005
[4]
  glycan array binding signal (z-score): -0.515
[5]
  glycan array binding signal (z-score): 0.016
[6]
  glycan array binding signal (z-score): 0.295
[7]
  glycan array binding signal (z-score): 0.284
[8]
  glycan array binding signal (z-score): -0.275
[9]
  glycan array binding signal (z-score): 0.311
[10]
  glycan array binding signal (z-score): 1
[11]
  glycan array binding signal (z-score): 0.692
[12]
  glycan array binding signal (z-score): -0.765
[13]
  glycan array binding signal (z-score): -0.982
Neu5Ac(b2-6)GalNAc
  glycan array binding signal (z-score): 0.27
[14]
  glycan array binding signal (z-score): -1.34
[15]
  glycan array binding signal (z-score): -0.575
[16]
  glycan array binding signal (z-score): -0.421
[17]
  glycan array binding signal (z-score): -0.752
[18]
  glycan array binding signal (z-score): 0.024
Neu5Gc(a2-3)Gal(b1-4)Glc
  glycan array binding signal (z-score): -1.17
[19]
  glycan array binding signal (z-score): 0.017
[20]
  glycan array binding signal (z-score): 0.62
[21]
  glycan array binding signal (z-score): 0.658
[22]
  glycan array binding signal (z-score): 0.067
Neu5Gc(a2-6)GalNAc
  glycan array binding signal (z-score): 0.043
[23]
  glycan array binding signal (z-score): -0.7
[24]
  glycan array binding signal (z-score): -0.206
[25]
  glycan array binding signal (z-score): 1.25
[26]
  glycan array binding signal (z-score): -0.188
[27]
  glycan array binding signal (z-score): -0.591
